Values from PubChem BioAssay AID504744 (Drosophila RNAi Screening Center, 2011).

Screen: 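Identify dsRNAs that increase or decrease phospho-dAkt after insulin treatment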 (primary screen)
System: Drosophila Kc167 cells
Reagent: long dsRNA against Drosophila genes, 250 ng dsRNA per well of a 384-well plate
Timing: 3 days of knock-down, then overnight serum-free starvation before stimulation
Treatment: bovine insulin at 387 nM for 10 minutes after 12 h without serum
Measurement: 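Per-well phospho-dAkt level from an in-cell fluorescent antibody stain, divided by a DNA-dye signal; log2 residuals turned into z-scores that take cell number into account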
Active means: 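Hit in the insulin screen when the two-replicate mean z-score is more extreme than plus or minus 2.5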
In all, the deposit lists about 23,000 reagents; shown is an unselected part of those that have a named target and a result. In the full data, 98 (0.43%) got an active call. 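Only hit calls are given; the phospho-dAkt signals, z-scores and hit direction were not deposited.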 Names joined by + are all predicted targets of the reagent.

gene	amplicon	activity call
uex (unextended)	DRSC20784	inactive
uex (unextended)	DRSC20786	inactive
PK2-R1 (Pyrokinin 2 receptor 1)	DRSC16447	inactive
sced (scrambled)	DRSC04990	inactive
Cchl (Cytochrome c heme lyase)	DRSC15949	inactive
Ir7a (Ionotropic receptor 7a)	DRSC17866	inactive
CG18284	DRSC02661	inactive
CG18284	DRSC20756	inactive
drk (downstream of receptor kinase)	DRSC07606	active
CG5245	DRSC15750	inactive
HP1c (Heterochromatin Protein 1c)	DRSC16166	inactive
CG34149	DRSC14537	inactive
CG34196	DRSC05704	inactive
SpdS (Spermidine Synthase)	DRSC16408	inactive
lin-52	DRSC18106	inactive
mRpL55 (mitochondrial ribosomal protein L55)	DRSC14764	inactive
Cpr49Ab (Cuticular protein 49Ab)	DRSC05341	inactive
pkm (Pinkman)	DRSC19674	inactive
CG17097	DRSC02569	inactive
CG12320	DRSC14498	inactive
CG3294	DRSC00590	inactive
CG30431	DRSC04902	inactive
CG30431	DRSC04904	inactive
Gfrl (Glial cell line-derived neurotrophic family receptor-like)	DRSC15197	inactive
Gfrl (Glial cell line-derived neurotrophic family receptor-like)	DRSC15199	inactive
Gfrl (Glial cell line-derived neurotrophic family receptor-like)	DRSC15565	inactive
Gfrl (Glial cell line-derived neurotrophic family receptor-like)	DRSC15719	inactive
CG11041	DRSC06025	inactive
Nlg3 (Neuroligin 3)	DRSC12477	inactive
Nlg3 (Neuroligin 3)	DRSC12524	inactive
Nlg3 (Neuroligin 3)	DRSC12540	inactive
Nlg3 (Neuroligin 3)	DRSC12574	inactive
CG32532	DRSC19556	inactive
CG32532	DRSC19557	inactive
CG32532	DRSC19558	inactive
CG32532	DRSC21370	inactive
CG18507	DRSC01334	inactive
CG18507	DRSC01914	inactive
CG3437	DRSC10366	inactive
CG44153	DRSC02228	inactive
CG44153	DRSC02229	inactive
CG44153	DRSC02902	inactive
CG44153	DRSC02903	inactive
dpr13 (defective proboscis extension response 13)	DRSC06160	inactive
dpr13 (defective proboscis extension response 13)	DRSC06464	inactive
CG7849	DRSC04895	inactive
RpL34b (Ribosomal protein L34b)	DRSC16475	inactive
PolZ2 (DNA polymerase zeta subunit 2)	DRSC12325	inactive
Vps25 (Vacuolar protein sorting 25)	DRSC06486	inactive
Ars2 (Arsenic resistance protein 2)	DRSC04893	inactive
CG8157	DRSC07085	inactive
CG8157	DRSC21595	inactive
CG3652	DRSC00624	inactive
Nup58 (Nucleoporin 58kD)	DRSC16235	inactive
CG12121	DRSC17816	inactive
Txl (Thioredoxin-like)	DRSC11310	inactive
LamC (Lamin C)	DRSC07453	inactive
CG13539	DRSC04181	inactive
ppk5 (pickpocket 5)	DRSC11492	inactive
Ranbp16	DRSC20160	inactive
CG14109	DRSC10112	inactive
Lrch (Leucine-rich-repeats and calponin homology domain protein)	DRSC02996	inactive
ReepB (Receptor expression enhancing protein B)	DRSC07150	inactive
Mdr49 (Multi drug resistance 49)	DRSC07466	inactive
thoc5	DRSC04327	inactive
Hecw (Hecw ubiquitin protein ligase)	DRSC18261	inactive
Hecw (Hecw ubiquitin protein ligase)	DRSC18276	inactive
CG9410 + CG15908	DRSC04976	inactive
CG9410 + CG15908	DRSC05001	inactive
CG42537	DRSC12519	inactive
CG42714	DRSC08798	inactive
gb (genderblind)	DRSC15961	inactive
Antp (Antennapedia)	DRSC12490	inactive
CG4598	DRSC02763	inactive
CG31538	DRSC12059	inactive
Nemp (Nuclear envelope integral membrane protein)	DRSC20206	inactive
CG10321	DRSC04061	inactive
BigH1 (Histone H1 variant BigH1)	DRSC15491	inactive
CG9360	DRSC20180	inactive
snky (sneaky)	DRSC09838	inactive
Baldspot	DRSC09671	inactive
Ctl1 (Choline transporter-like 1)	DRSC08303	inactive
CG3868	DRSC10380	inactive
ana2 (anastral spindle 2)	DRSC05952	inactive
eIF3d2 (eukaryotic translation initiation factor 3 subunit d2)	DRSC15651	inactive
CG16976 (retired record)	DRSC08499	inactive
Top3alpha (Topoisomerase 3alpha)	DRSC03460	inactive
PXo (P[[i]]-sensitive XPR1 orthologue)	DRSC09734	inactive
CG14780	DRSC18566	inactive
CG13284	DRSC02256	inactive
Rev1 (DNA polymerase Rev1)	DRSC08264	inactive
COX4L (Cytochrome c oxidase subunit 4-like)	DRSC04841	inactive
Pld (Phospholipase D)	DRSC04854	inactive
CG4282	DRSC06865	inactive
MFS12 (Major Facilitator Superfamily Transporter 12)	DRSC07268	inactive
CG18609	DRSC06775	inactive
CG34124	DRSC00849	inactive
CG9837	DRSC16573	inactive
Traf4 (TNF-receptor-associated factor 4)	DRSC00445	inactive
Traf4 (TNF-receptor-associated factor 4)	DRSC00794	inactive
CG15914	DRSC19739	inactive
CG43897	DRSC10965	inactive
CG43897	DRSC10967	inactive
CG43897	DRSC21583	inactive
CG15550	DRSC15088	inactive
CG32206	DRSC09602	inactive
CG32206	DRSC10094	inactive
CG32206	DRSC10095	inactive
CG32206	DRSC10096	inactive
CG32206	DRSC11080	inactive

13 neighbouring entries from above, for reference:
gene	amplicon	activity call
Baldspot	DRSC09671	inactive
Ctl1 (Choline transporter-like 1)	DRSC08303	inactive
CG3868	DRSC10380	inactive
ana2 (anastral spindle 2)	DRSC05952	inactive
eIF3d2 (eukaryotic translation initiation factor 3 subunit d2)	DRSC15651	inactive
CG16976 (retired record)	DRSC08499	inactive
Top3alpha (Topoisomerase 3alpha)	DRSC03460	inactive
PXo (P[[i]]-sensitive XPR1 orthologue)	DRSC09734	inactive
CG14780	DRSC18566	inactive
CG13284	DRSC02256	inactive
Rev1 (DNA polymerase Rev1)	DRSC08264	inactive
COX4L (Cytochrome c oxidase subunit 4-like)	DRSC04841	inactive
Pld (Phospholipase D)	DRSC04854	inactive
